Source: PubChem BioAssay AID248 (DTP/NCI, 2004)
The list does not hold the whole screen: it gathers tests that were run many times, whatever their T/C, doses with no T/C, and many T/C values between a quarter and a half above the control. Other doses and runs of a compound stand elsewhere. T/C: endpoint of the treated group in % of that of the vehicle group. Some entries give survivors of the animals treated and no T/C: the source files T/C as zero there, which appears to mark a toxic dose or a test without result, not a measured value. Some survivor counts are full or nearly so, which does not show that the dose was tolerated: the source hardly ever lists a survival T/C far under the control, and the zero likely stands for such cases as well. Survivors were counted at the toxicity check, usually on the fifth day, unless a day is given; later deaths do not show. Schedule codes are those of the source, read here as Q, the interval in days (D) or hours (H), X, the number of doses. Some doses were run more than once; the values are given in rising order. Some schedule codes hold Z or #, which are not explained here. Where survival is the endpoint, the PubChem record calls one and a half times the control and up active, and a quarter to a half above the control has no call in these data; cut-offs in other NCI protocols can differ.

Tested on: L1210 leukemia ip in BDF1 mice, survival T/C
Experiment: NCI In Vivo Anticancer Drug Screen. Data for tumor model L1210 Leukemia (intraperitoneal) in B6D2F1 (BDF1) mice
Settings: T/C endpoint: mean survival time, higher T/C = longer survival
[1] = dose: 200.0 mg/kg/injection, schedule: Q01DX001 (ip), vehicle: other
[2] = dose: 400.0 mg/kg/injection, schedule: Q01DX001 (ip), vehicle: other
[3] = dose: 400.0 mg/kg/injection, schedule: Q04DX003 (ip), vehicle: Klucel (hydroxypropylcellulose) (HPC)
[4] = dose: 200.0 mg/kg/injection, schedule: Q04DX002 (ip), vehicle: Klucel (hydroxypropylcellulose) (HPC)
[5] = dose: 400.0 mg/kg/injection, schedule: Q01DX009 (ip), vehicle: saline with Tween-80
[6] = dose: 200.0 mg/kg/injection, schedule: Q01DX001 (ip), vehicle: saline
[7] = dose: 400.0 mg/kg/injection, schedule: Q01DX001 (ip), vehicle: saline
[8] = dose: 200.0 mg/kg/injection, schedule: Q04DX003 (ip), vehicle: saline with Tween-80
[9] = dose: 400.0 mg/kg/injection, schedule: Q04DX003 (ip), vehicle: saline with Tween-80
[10] = dose: 400.0 mg/kg/injection, schedule: Q04DX003 (ip), vehicle: saline
[11] = dose: 50.0 mg/kg/injection, schedule: Q04DX003 (ip), vehicle: saline with Tween-80
[12] = dose: 200.0 mg/kg/injection, schedule: Q01DX009 (ip), vehicle: saline with Tween-80

Structure (SMILES): CCCCCCCCCCCCNCc1ccc(O)cc1
- survivor count [1]: 3 of 6
- survivor count [2]: 1 of 6

Structure (SMILES): N#C[S-].N#C[S-].N#C[S-].N#C[S-].[Co]
- survivor count (dose: 40.0 mg/kg/injection, schedule: Q01DX001 (ip), vehicle: saline): 0 of 6
- survivor count (dose: 80.0 mg/kg/injection, schedule: Q01DX001 (ip), vehicle: saline): 0 of 6

Structure (SMILES): O=C(O)c1cccc(F)c1C(=O)c1ccc2ccccc2c1
- survivor count [3]: 2 of 6

Structure (SMILES): CC1(C)N=C(N)N=C(N)N1c1cccc(CCCCc2ccc(Cl)c(S(=O)(=O)F)c2)c1
- survivor count (dose: 25.0 mg/kg/injection, schedule: Q01DX009 (ip), vehicle: saline sonified): 6 of 6
- survivor count (dose: 50.0 mg/kg/injection, schedule: Q01DX009 (ip), vehicle: saline sonified): 5 of 6

Structure (SMILES): CC(=O)Oc1ccc(C)cc1
- survivor count [3]: 5 of 6

Structure (SMILES): COc1ccc2c3c([nH]c2c1)C(C)=NCC3
- survivor count [4]: 1 of 3
- survivor count (dose: 400.0 mg/kg/injection, schedule: Q04DX002 (ip), vehicle: Klucel (hydroxypropylcellulose) (HPC)): 0 of 3

Structure (SMILES): CC(=O)OCN1C(=O)N(COC(C)=O)C(c2ccccc2)(c2ccccc2)C1=O
- survivor count [5]: 0 of 3

Structure (SMILES): CN(C)C1CCc2c(ccc3ccccc23)C1=O (centres undefined)
- survivor count [6]: 0 of 6
- survivor count [7]: 0 of 6

Structure (SMILES): CC(CCC(=O)O)C1CCC2C3CCC4CC(OC=O)CCC4(C)C3CC(OC=O)C12C (centres undefined)
- survivor count [8]: 6 of 6
- survivor count [9]: 6 of 6

Structure (SMILES): c1ccc([Si](c2ccccc2)(c2cccs2)c2cccs2)cc1
- survivor count [5]: 6 of 6

Structure (SMILES): CCCCCCCCCCCC(=O)OCC1OC2C(Oc3nc(=N)ccn32)C1OC(=O)CCCCCCCCCCC (centres undefined)
- T/C (dose: 6.25 mg/kg/injection, schedule: Q01DX009 (ip), vehicle: water): 139 % of control
- survivor count (dose: 100.0 mg/kg/injection, schedule: Q01DX009 (ip), vehicle: water): 6 of 6

Structure (SMILES): CCN(CC)CCNc1ncnc2[nH]ncc12
- survivor count (dose: 200.0 mg/kg/injection, schedule: Q04DX003 (ip), vehicle: saline): 1 of 3
- survivor count [10]: 0 of 3

Structure (SMILES): CC(=O)NCc1cccc[n+]1[O-]
- survivor count (dose: 200.0 mg/kg/injection, schedule: Q04DX002 (ip), vehicle: saline): 1 of 3
- survivor count (dose: 400.0 mg/kg/injection, schedule: Q04DX002 (ip), vehicle: saline): 0 of 3

Structure (SMILES): CC1(C)N=C(N)N=C(N)N1c1ccc2ccccc2c1
- survivor count (dose: 100.0 mg/kg/injection, schedule: Q01DX015 (ip), vehicle: other): 0 of 6
- survivor count [1]: 1 of 4
- survivor count (dose: 200.0 mg/kg/injection, schedule: Q01DX015 (ip), vehicle: other): 0 of 6
- survivor count [2]: 0 of 4

Structure (SMILES): Clc1c2c(nc3ccccc13)CCCC2
- survivor count [7]: 1 of 4

Structure (SMILES): CCN(CC)CCCOP(=O)(N(CC)CC)N(CCCl)CCCl (centres undefined)
- survivor count (dose: 300.0 mg/kg/injection, schedule: Q01DX001 (ip), vehicle: saline with Tween-80): 0 of 6
- survivor count (dose: 450.0 mg/kg/injection, schedule: Q01DX001 (ip), vehicle: saline with Tween-80): 0 of 6

Structure (SMILES): Cc1ccc(N=Cc2cc(Cl)ccc2O)cc1.Cc1ccc(N=Cc2cc(Cl)ccc2O)cc1.[Co]
- survivor count [11]: 3 of 3
- survivor count [8]: 1 of 3
- survivor count [9]: 0 of 3

Structure (SMILES): CN(C)CCCC#N
- survivor count [10]: 1 of 6

Structure (SMILES): Nc1ccc2oc(=O)c(C(=O)O)cc2c1
- survivor count (dose: 400.0 mg/kg/injection, schedule: Q01DX001 (ip), vehicle: Klucel (hydroxypropylcellulose) (HPC)): 0 of 3

Structure (SMILES): O=C(/C(=C\c1ccccc1)CO)c1ccccc1
- survivor count (dose: 125.0 mg/kg/injection, schedule: Q01DX009 (ip), vehicle: saline with Tween-80): 5 of 6
- survivor count (dose: 250.0 mg/kg/injection, schedule: Q01DX009 (ip), vehicle: saline with Tween-80): 1 of 6

Structure (SMILES): OC(CN1CCCCC1)c1ccc(/C=C/c2ccc(Cl)cc2)cc1 (centres undefined)
- survivor count (dose: 25.0 mg/kg/injection, schedule: Q01DX009 (ip), vehicle: saline with Tween-80): 6 of 6
- survivor count [11]: 6 of 6
- survivor count (dose: 100.0 mg/kg/injection, schedule: Q04DX003 (ip), vehicle: saline with Tween-80): 6 of 6
- survivor count (dose: 200.0 mg/kg/injection, schedule: Q01DX001 (ip), vehicle: saline with Tween-80): 6 of 6
- survivor count (dose: 400.0 mg/kg/injection, schedule: Q01DX001 (ip), vehicle: saline with Tween-80): 2 of 6

Structure (SMILES): O=C1c2cc3c(cc2CCC1N1CCOCC1)CCCC3 (centres undefined)
- survivor count [9]: 1 of 6

Structure (SMILES): CN(C)c1nc(N)c(C#N)c(C#N)c1C#N
- survivor count [7]: 0 of 4

Structure (SMILES): CCCCNC(=S)NC1CC(O[C@H]2C[C@](O)(C(C)=O)Cc3c(O)c4c(c(O)c32)C(=O)c2c(OC)cccc2C4=O)OC(C)C1O (some centres undefined)
- survivor count [12]: 6 of 6
- survivor count [5]: 5 of 6

Structure (SMILES): CC(=O)c1cccc(NC(=O)Oc2cc(C)c(Cl)c(C)c2)c1
- survivor count [5]: 6 of 6

Structure (SMILES): COc1ccc(OC(=O)Nc2cc(C)ccc2C)cc1
- survivor count (dose: 400.0 mg/kg/injection, schedule: Q01DX009 (ip), vehicle: Klucel (hydroxypropylcellulose) (HPC)): 5 of 6

Structure (SMILES): BrC1(Br)C2CCCCC21 (centres undefined)
- survivor count (dose: 100.0 mg/kg/injection, schedule: Q04DX003 (ip), vehicle: acetone): 6 of 6
- survivor count (dose: 400.0 mg/kg/injection, schedule: Q04DX003 (ip), vehicle: acetone): 2 of 6 and 3 of 6

Structure (SMILES): COC(=O)c1ccccc1NS(=O)(=O)c1ccc(Cl)cc1
- survivor count [4]: 3 of 3

Structure (SMILES): CCCCCCC(/C=N/N=C(N)N)=N\N=C(N)N
- survivor count (dose: 60.0 mg/kg/injection, schedule: Q01DX Z (ip), vehicle: carboxymethylcellulose (CMC)): 1 of 6
- survivor count (dose: 120.0 mg/kg/injection, schedule: Q01DX Z (ip), vehicle: carboxymethylcellulose (CMC)): 0 of 6
- survivor count (dose: 120.0 mg/kg/injection, schedule: Q01DX Z (oral), vehicle: carboxymethylcellulose (CMC)): 2 of 6

Structure (SMILES): CN(/N=C/c1ccccc1)C(=N)N
- survivor count (dose: 125.0 mg/kg/injection, schedule: Q04DX003 (ip), vehicle: saline): 1 of 6
- survivor count (dose: 150.0 mg/kg/injection, schedule: Q01DX001 (ip), vehicle: saline): 3 of 6
- survivor count (dose: 250.0 mg/kg/injection, schedule: Q04DX003 (ip), vehicle: saline): 3 of 6
- survivor count (dose: 300.0 mg/kg/injection, schedule: Q01DX001 (ip), vehicle: saline): 0 of 6

Structure (SMILES): Oc1cccc(-c2cccc(OCCCCCCCCCCBr)c2)c1
- survivor count (dose: 50.0 mg/kg/injection, schedule: Q01DX009 (ip), vehicle: DMSO): 3 of 6
- survivor count (dose: 100.0 mg/kg/injection, schedule: Q01DX009 (ip), vehicle: DMSO): 0 of 6
- survivor count (dose: 200.0 mg/kg/injection, schedule: Q01DX009 (ip), vehicle: DMSO): 1 of 6
- survivor count (dose: 400.0 mg/kg/injection, schedule: Q01DX009 (ip), vehicle: DMSO): 0 of 6
- survivor count (dose: 400.0 mg/kg/injection, schedule: Q04DX003 (ip), vehicle: DMSO): 4 of 6

Structure (SMILES): CCC(N)CO (centres undefined)
- survivor count [7]: 2 of 4

Structure (SMILES): CC1SC(=S)N(c2ccccc2)C1=O (centres undefined)
- survivor count [5]: 3 of 6

Structure (SMILES): CC(=O)c1ccc(F)cc1
- survivor count [3]: 6 of 6

Structure (SMILES): NNC(=O)c1ccncc1
- survivor count [6]: 3 of 6
- survivor count (dose: 200.0 mg/kg/injection, schedule: Q01DX009 (ip), vehicle: saline): 3 of 6
- survivor count [7]: 0 of 6
- survivor count [10]: 0 of 4

Structure (SMILES): O=C(O)c1cnc(Cl)c([N+](=O)[O-])c1
- survivor count [9]: 0 of 6

Structure (SMILES): COC1OCC(COC(=O)c2ccc([N+](=O)[O-])cc2)C1OC(=O)c1ccc([N+](=O)[O-])cc1 (centres undefined)
- survivor count (dose: 400.0 mg/kg/injection, schedule: Q01DX001 (ip), vehicle: carboxymethylcellulose (CMC)): 4 of 4

Structure (SMILES): O=C(NCCc1nc(C(=O)O)cs1)c1ccccc1
- survivor count (dose: 200.0 mg/kg/injection, schedule: Q01DX009 (ip), vehicle: gum acacia): 6 of 6
- survivor count (dose: 400.0 mg/kg/injection, schedule: Q01DX009 (ip), vehicle: gum acacia): 6 of 6

Structure (SMILES): CCCN(CCC)CC(C)(C)CO
- survivor count [12]: 0 of 3
